PubChem BioAssay AID1259306, Sanger Institute – 2017

- Screen: 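Kinases needed for viability and knock-downs that synergise with BYL719, cetuximab or trametinib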 (primary screen)
- Cell system: human SNU-C5 colorectal cancer cells
- Reagent: siRNA pool against human genes
- Conditions: DMSO vehicle alone, or one anchor drug: BYL719 at 1 µM, cetuximab at 5 µg/ml or trametinib at 10 nM, given 24 h into the assay
- Measured: 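Replicate-averaged viability against non-targeting pool control, given as fraction and robust z-score; separate synergy scores for BYL719, cetuximab and trametinib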
- Direction: robust z-score, knock-down alone and viability, knock-down alone: higher = more viable cells
- Active means: 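Essential if knock-down without drug gives a robust z-score under -3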
- Meaning of the calls: active = essential (knock-down alone); inactive = no change alone
The deposit covers 794 reagents; shown is a part drawn at random. 11 of them (1.4%) count as active. 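Calls reflect knock-down alone; synergy scores play no part, so knock-downs synergising with a drug can be called no change.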 Viability is capped at 1. Further read-outs or replicates are left out here. Not stated in the record: the amount of reagent, the time to read-out.

Silencing of NEK10 (NIMA related kinase 10) gave: robust z-score, knock-down alone -0.197; viability, knock-down alone 0.837; inactive.
PRKAG3 (protein kinase AMP-activated non-catalytic subunit gamma 3) showed robust z-score, knock-down alone -2.95; viability, knock-down alone 0.457; inactive.
Knock-down of AURKC (aurora kinase C) came out at: robust z-score, knock-down alone -0.586; viability, knock-down alone 0.783; inactive.
Against MAST4, the values are robust z-score, knock-down alone 0.575; viability, knock-down alone 0.943; inactive.
After knock-down of SNRK (SNF related kinase) the results were robust z-score, knock-down alone 0.942; viability, knock-down alone 0.994; inactive.
After knock-down of CAMK1D (calcium/calmodulin dependent protein kinase ID) the results were robust z-score, knock-down alone -0.138; viability, knock-down alone 0.845; inactive.
Knock-down of ERBB4 (erb-b2 receptor tyrosine kinase 4) came out at: robust z-score, knock-down alone -0.998; viability, knock-down alone 0.726; inactive.
After knock-down of PIP4K2A (phosphatidylinositol-5-phosphate 4-kinase type 2 alpha), the record shows robust z-score, knock-down alone -0.359; viability, knock-down alone 0.814; inactive.
With knock-down of PTEN (phosphatase and tensin homolog), the record shows robust z-score, knock-down alone 0.0422; viability, knock-down alone 0.87; inactive.
Against DUSP21 (dual specificity phosphatase 21), the entry reads robust z-score, knock-down alone 0.327; viability, knock-down alone 0.909; inactive.
TESK1 (testis associated actin remodelling kinase 1) gave robust z-score, knock-down alone -1.94; viability, knock-down alone 0.597; inactive.
NPR2 (natriuretic peptide receptor 2) showed robust z-score, knock-down alone -0.635; viability, knock-down alone 0.776; inactive.
MELK (maternal embryonic leucine zipper kinase) scored robust z-score, knock-down alone 0.435; viability, knock-down alone 0.924; inactive.
After knock-down of XYLB (xylulokinase), the record shows robust z-score, knock-down alone 0.983; viability, knock-down alone 0.999; inactive.
Depletion of CDC73 (cell division cycle 73) came out at: robust z-score, knock-down alone -1.49; viability, knock-down alone 0.658; inactive.

Quoted from above for reference:
PRKAG3 (protein kinase AMP-activated non-catalytic subunit gamma 3) → robust z-score, knock-down alone = -2.95; viability, knock-down alone = 0.457; activity call = inactive
AURKC (aurora kinase C) → robust z-score, knock-down alone = -0.586; viability, knock-down alone = 0.783; activity call = inactive
MAST4 → robust z-score, knock-down alone = 0.575; viability, knock-down alone = 0.943; activity call = inactive
SNRK (SNF related kinase) → robust z-score, knock-down alone = 0.942; viability, knock-down alone = 0.994; activity call = inactive
CAMK1D (calcium/calmodulin dependent protein kinase ID) → robust z-score, knock-down alone = -0.138; viability, knock-down alone = 0.845; activity call = inactive

Next reagents:
PI4K2A (phosphatidylinositol 4-kinase type 2 alpha) gave robust z-score, knock-down alone -0.0689; viability, knock-down alone 0.854; inactive.
With knock-down of HUNK (hormonally up-regulated Neu-associated kinase) the results were robust z-score, knock-down alone 0.919; viability, knock-down alone 0.99; inactive.
After knock-down of CTNNB1 (catenin beta 1), the screen gave robust z-score, knock-down alone -0.711; viability, knock-down alone 0.766; inactive.
SCYL3 (SCY1 like pseudokinase 3) showed robust z-score, knock-down alone 0.45; viability, knock-down alone 0.926; inactive.
For PRPS1 (phosphoribosyl pyrophosphate synthetase 1) the deposit lists robust z-score, knock-down alone -1.69; viability, knock-down alone 0.631; inactive.
PTK7 (protein tyrosine kinase 7 (inactive)) gave robust z-score, knock-down alone -3.05; viability, knock-down alone 0.444; active.
TSSK2 (testis specific serine kinase 2) showed robust z-score, knock-down alone 0.877; viability, knock-down alone 0.985; inactive.
For TNK2 (tyrosine kinase non receptor 2), the values are robust z-score, knock-down alone 0.989; viability, knock-down alone 1; inactive.
After knock-down of RSKR (ribosomal protein S6 kinase related) the results were robust z-score, knock-down alone -0.422; viability, knock-down alone 0.806; inactive.
Silencing of GTF2H1 (general transcription factor IIH subunit 1) came out at: robust z-score, knock-down alone 0.383; viability, knock-down alone 0.917; inactive.
For CDK3 (cyclin dependent kinase 3), the entry reads robust z-score, knock-down alone 0.895; viability, knock-down alone 0.987; inactive.
MAP3K19 (mitogen-activated protein kinase kinase kinase 19) gave robust z-score, knock-down alone -1.79; viability, knock-down alone 0.618; inactive.
After knock-down of FGFRL1 (fibroblast growth factor receptor like 1) the results were robust z-score, knock-down alone 0.956; viability, knock-down alone 0.995; inactive.
After knock-down of RUNX1 (RUNX family transcription factor 1), the record shows robust z-score, knock-down alone -1.69; viability, knock-down alone 0.631; inactive.
After knock-down of AAK1 (AP2 associated kinase 1) the results were robust z-score, knock-down alone -0.34; viability, knock-down alone 0.817; inactive.
For CKMT2 (creatine kinase, mitochondrial 2), the entry reads robust z-score, knock-down alone 0.399; viability, knock-down alone 0.919; inactive.
Depletion of HIPK3 (homeodomain interacting protein kinase 3) resulted in: robust z-score, knock-down alone -1.16; viability, knock-down alone 0.704; inactive.
HK1 (hexokinase 1) showed robust z-score, knock-down alone 0.824; viability, knock-down alone 0.977; inactive.
For CDK5R2 (cyclin dependent kinase 5 regulatory subunit 2), the values are robust z-score, knock-down alone -0.00334; viability, knock-down alone 0.863; inactive.
For AKAP9 (A-kinase anchoring protein 9) the deposit lists robust z-score, knock-down alone 0.424; viability, knock-down alone 0.922; inactive.
CALM2 (calmodulin 2) showed robust z-score, knock-down alone 0.17; viability, knock-down alone 0.887; inactive.
